This test concerns the target T1, APOBEC2 (mouse (endogenous in C2C12)) (UniProt Q9WV35).
T1 sequence: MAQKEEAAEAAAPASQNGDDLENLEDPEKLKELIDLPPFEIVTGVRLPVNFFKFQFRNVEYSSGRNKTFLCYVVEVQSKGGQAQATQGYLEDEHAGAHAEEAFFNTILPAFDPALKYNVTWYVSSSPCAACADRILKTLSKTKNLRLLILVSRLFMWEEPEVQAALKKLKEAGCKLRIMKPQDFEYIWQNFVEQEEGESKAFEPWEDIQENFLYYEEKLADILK
Briefly: co-IP.

Chains of the proteins cited; added tags and fusions are not shown.
UniProt O09106: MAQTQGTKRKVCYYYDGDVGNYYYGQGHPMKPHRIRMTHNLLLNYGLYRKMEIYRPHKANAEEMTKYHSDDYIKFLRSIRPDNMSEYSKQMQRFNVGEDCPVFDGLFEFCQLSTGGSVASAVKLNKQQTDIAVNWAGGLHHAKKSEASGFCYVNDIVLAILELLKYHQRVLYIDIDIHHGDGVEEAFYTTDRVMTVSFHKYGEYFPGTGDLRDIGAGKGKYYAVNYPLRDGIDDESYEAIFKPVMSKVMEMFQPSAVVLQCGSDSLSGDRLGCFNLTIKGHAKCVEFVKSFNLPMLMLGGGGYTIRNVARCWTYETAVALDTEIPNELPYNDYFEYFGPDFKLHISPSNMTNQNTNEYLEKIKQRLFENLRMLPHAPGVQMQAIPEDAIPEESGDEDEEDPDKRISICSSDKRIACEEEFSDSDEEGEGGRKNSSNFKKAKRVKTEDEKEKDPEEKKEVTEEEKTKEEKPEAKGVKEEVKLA

These are yes or no findings as the source states them, for the method shown. Binding seen in cells or lysates may run through a third protein. Some binding calls cover weakened binding; strength is not graded here.

“histone deacetylase 1 (HDAC1) (from UniProt O09106 1-482)”: the binding entry is “binds”.

The values are drawn from doi:10.1101/2020.07.29.223594.
